Test results published in patent publication US7807623B2, “Use of pentagastrin to inhibit gastric acid secretion or as a diuretic” (The Regents of the University of California, priority 1999, dated 2010).

Tested on: Pentagastrin-Induced Gastric Acid Secretion
Test: Continuous pentagastrin infusion model: gastric acid output after single i.v. dose
Assay type: in vivo, human
Details: 20 mg dose group
Method: After 60 min of pentagastrin infusion, subjects received a single dose of i.v. pantoprazole (20, 40, 80, or 120 mg), i.v. famotidine (20 mg), or saline placebo. […] The study protocol was approved by the UCLA Institutional Review Board and conducted according to the provisions of the Declaration of Helsinki and its amendments. Written informed consent was obtained from each participant before enrollment, and the identity of each patient was kept confidential. Each subject underwent a prestudy screening that included a physical examination, electrocardiogram (ECG), laboratory blood and urine analysis, and a pregnancy test for women. […] Subjects were excluded from the study if abnormalities in these parameters were detected. Maximum AO (MAO) were also determined during the screening period. MAO was estimated by the subcutaneous injection of PG (6 μg/kg), after which four 15-min samples were collected and analyzed (Table 1). […] The variables measured were onset of response (time until AO decreased to <10 mEq/h and remained below this level for 1 h), duration of response (time from onset until time when AO levels rose to >10 mEq/h and remained so for 1 h), and cumulative AO 15 over 24 h. […] Vital signs and electrolytes were monitored during this time. […]

Structure (SMILES): NC(N)=Nc1nc(CSCCC(N)=NS(N)(=O)=O)cs1 [Famotidine, famotidine]
- Acid Output, Treatment Period −1-0 h (hour before study drug, PG infusion 1 μg/kg/h): 29.1 ± 15.4 mEq/h
- Acid Output, Screening Period (MAO) (screening, before study drug, after subcutaneous PG 6 μg/kg): 28.1 ± 7.0 mEq/h
